Counter-ions that a name gives are not always drawn. Like-named read-outs stand apart in the source and are kept apart here. Hit rate of the full screen: of about 3,300 compounds, about 60 (2%) showed an effect of 50% or more. Some of the results follow. Peptide text beside a SMILES is read from it.
Tested on: HCoV-OC43
Parameters: species or system RD; HTS, protection from HCoV-OC43 induced cell death, luminescent cell viability (CellCounting-Lite 2.0), inhibition rate
Details: 24 h post infection, 1 h compound pre-incubation, 10 µM, inhibitor

Row | SMILES | OC43 Inhibition rate [%] | OC43 Inhibition rate (OC43 Inhibition rate, 24 h) [%]
1 | Cc1cccs1 [2-Methylthiophene] | 0.7 | –
2 | O=C(O)C(O)Cc1cc2ccccc2[nH]1 (stereo not shown) [Indolelactic acid] | 4.1 | –
3 | NC(=O)c1ccccc1O [Salicylamide] | -0.2 | –
4 | OCC1=C[C@H](N[C@H]2C[C@H](CO)[C@@H](O[C@@H]3O[C@H](CO)[C@@H](O)[C@H](O)[C@H]3O)[C@H](O)[C@H]2O)[C@H](O)[C@@H](O)[C@@H]1O [Validamycin A] | 2.9 | –
5 | CC1(C)CC[C@]2(C(=O)O)CC[C@]3(C)C(=CC[C@@H]4[C@@]5(C)CCC(=O)C(C)(C)[C@@H]5CC[C@]43C)[C@@H]2C1 [Oleanonic acid] | 20 | –
6 | CC(C)N(CCCCOCC(=O)O)c1cnc(-c2ccccc2)c(-c2ccccc2)n1 [MRE-269] | 41.2 | –
7 | C[C@]12CC[C@H](O)C[C@H]1CC[C@@H]1[C@@H]2C[C@@H](O)[C@]2(C)[C@@H](C3=CC(=O)OC3)CC[C@]12O [Digoxigenin] | 10.9 | –
8 | COc1ccc(-c2coc3cc(O)ccc3c2=O)cc1 [Formononetin] | 0.5 | –
9 | C=C[C@H]1CN2CC[C@H]1C[C@H]2[C@H](O)c1ccnc2ccc(OC)cc12 [Quinine] | – | 0.5
10 | O=C(O)CCCc1c[nH]c2ccccc12 [Indole-3-butyric acid] | -0.3 | –
11 | CC(C)[C@@H](C)/C=C/[C@@H](C)[C@H]1CC[C@H]2C3=CC=C4C[C@@H](O)CC[C@]4(C)[C@H]3CC[C@]12C [Ergosterol] | -0.2 | –
12 | NC(Cc1cc(I)c(Oc2cc(I)c(OS(=O)(=O)O)c(I)c2)c(I)c1)C(=O)O (stereo not shown) [Thyroxine sulfate] | -1.3 | –
13 | NCCCCC(=O)O [5-Aminovaleric acid] | -1.8 | –
14 | COc1c(O)cc2occ(-c3ccc(O)cc3)c(=O)c2c1O [Tectorigenin] | -0.2 | –
15 | c1ccc(CC2=NCCN2)cc1 [Tolazoline (hydrochloride)] | 7.1 | –
16 | COc1cc(-c2coc3cc4c(c(OC)c3c2=O)OCO4)cc(OC)c1OC [Irisflorentin] | 3.8 | –
17 | COc1cc2oc(=O)ccc2cc1O[C@@H]1O[C@H](CO)[C@@H](O)[C@H](O)[C@H]1O [Magnolioside] | -0.1 | –
18 | O=P(O)(O)O[C@H]1[C@H](OP(=O)(O)O)[C@@H](OP(=O)(O)O)[C@H](OP(=O)(O)O)[C@@H](OP(=O)(O)O)[C@H]1OP(=O)(O)O [Phytic acid (dodecasodium hydrate)] | – | -0.3
19 | NC(N)=NCCCC(=O)O [4-Guanidinobutanoic acid] | 7.6 | –
20 | C=C1[C@@H](C)[C@H]2[C@H](Cc3ccccc3)NC(=O)[C@]23OC(=O)/C=C/[C@H](O)CCC[C@@H](C)C/C=C/[C@H]3[C@@H]1O [Cytochalasin B] | 63 | –
21 | Nc1ccn([C@@H]2O[C@H](COP(=O)(O)OP(=O)(O)OP(=O)(O)O)[C@@H](O)[C@H]2O)c(=O)n1 [Cytidine-5'-triphosphate (disodium)] | 1.6 | –

Row | SMILES | OC43 Inhibition rate [%] | OC43 Inhibition rate (OC43 Inhibition rate, 24 h) [%]
22 | CC[C@H]1OC(=O)[C@H](C)[C@@H](O[C@H]2C[C@@](C)(OC)[C@@H](O)[C@H](C)O2)[C@H](C)[C@@H](O[C@@H]2O[C@H](C)C[C@H](N(C)C)[C@H]2O)[C@](C)(O)C[C@@H](C)C(=O)[C@H](C)[C@@H](O)[C@]1(C)O [Erythromycin] | 9.7 | –
23 | CC(=O)OC/C=C(/C)CCC=C(C)C [Neryl acetate] | 0.1 | –
24 | CC(C)C(=O)C(=O)O [3-Methyl-2-oxobutanoic acid] | -0.3 | –
25 | C[C@@H]1O[C@@H](OC[C@H]2O[C@@H](OCCc3ccc(O)c(O)c3)[C@H](O)[C@@H](O)[C@@H]2O)[C@H](O)[C@H](O)[C@H]1O [Forsythoside E] | -0.7 | –
26 | O=C1C[C@@H](c2ccc(O[C@@H]3O[C@H](CO)[C@@H](O)[C@H](O)[C@H]3O)cc2)Oc2cc(O)ccc21 [Liquiritin] | -2.3 | –
27 | COc1c(O[C@@H]2O[C@H](C(=O)O)[C@@H](O)[C@H](O)[C@H]2O)cc2oc(-c3ccccc3)cc(=O)c2c1O [Oroxylin A-7-O-glucuronide] | -0.2 | –
28 | COc1ccc2c3c1O[C@H]1C[C@@H](O)CC[C@]31CCN(C)C2 [Lycoramine] | -0.4 | –
29 | C[C@@H]1CC[C@H]2C(C)(C)[C@H]3C[C@@]12CC[C@@]3(C)O [Cedrol] | 0.9 | –
30 | CC[C@@H]1/C=C/C=C/C[C@H](C)[C@H](O)[C@](C)(O)C(=O)[C@H](C)[C@@H](O)[C@H](C)C(=O)[C@H](C)[C@@H](O)[C@H](C)/C=C/C(=O)O[C@H]2[C@@H](C)[C@@H](CC1)O[C@@]1(CC[C@@H](C)[C@@H](C[C@H](C)O)O1)[C@@H]2C [Oligomycin A] | -2.5 | –
31 | C=CC(=C)CCC=C(C)C [Myrcene] | -1.2 | –
32 | CCCCCCCCCCCCCCCCCC(=O)NCc1ccccc1 [N-Benzyloctadecanamide] | -0.1 | –
33 | C[C@H](N)C(=O)N[C@@H](CCC(N)=O)C(=O)O [L-Alanyl-L-glutamine] (H-Ala-Gln-OH) | 3.4 | –
34 | O=c1cc(-c2ccccc2)oc2cc(O[C@@H]3O[C@H](CO[C@@H]4O[C@H](CO)[C@@H](O)[C@H](O)[C@H]4O)[C@@H](O)[C@H](O)[C@H]3O)c(O)c(O)c12 [Oroxin B] | 0.2 | –
35 | N[C@@H](CCC(=O)O)C(=O)O [L-Glutamic acid] | – | -0.4
36 | CO[C@H]1C[C@H](O[C@H]2[C@H](C)O[C@@H](O[C@@H]3/C(C)=C/C[C@@H]4C[C@@H](C[C@]5(C=C[C@H](C)[C@@H](C6CCCCC6)O5)O4)OC(=O)[C@@H]4C=C(C)[C@@H](O)[C@H]5OC/C(=C\C=C\[C@@H]3C)[C@]54O)C[C@@H]2OC)O[C@@H](C)[C@@H]1O [Doramectin] | 4.2 | –
37 | C[n+]1c2n(c(=O)c3ccccc31)CCc1c-2[nH]c2ccccc12 [Dehydroevodiamine (hydrochloride)] | 1.2 | –
38 | CCCCCCCCC/C=C/C(=O)CCc1ccc(O)c(OC)c1 [[10]-Shogaol] | 0 | –
39 | CC(C)C[C@@H](N)C(=O)O [D-Leucine] | 3 | –
40 | O=C1C[C@@H](O[C@@H]2O[C@H](CO)[C@@H](O)[C@H](O)[C@H]2O)CO1 [Kinsenoside] | 1.3 | –
41 | COC(=O)c1cc(O)c(O)c(OC)c1 [Methyl 3-O-methylgallate] | -4.2 | –
42 | C[C@H](O)CO [(S)-(+)-1,2-Propanediol] | 0.1 | –

Some values from the results shown:
Under OC43 Inhibition rate [%], C[C@@H]1CC[C@H]2C(C)(C)[C@H]3C[C@@]12CC[C@@]3(C)O [Cedrol] has 0.9
Under OC43 Inhibition rate [%], CC(C)C(=O)C(=O)O [3-Methyl-2-oxobutanoic acid] has -0.3

Remaining list, next part

Row | SMILES | OC43 Inhibition rate [%] | OC43 Inhibition rate (OC43 Inhibition rate, 24 h) [%]
43 | COC(=O)/C=C/c1ccc(O)cc1 [Methyl p-coumarate] | – | 4.7
44 | O=C1O[C@H]([C@@H](O)CO)C(O)=C1OP(=O)(O)O [L-Ascorbic acid 2-phosphate (trisodium)] | 9.8 | –
45 | Oc1cccc2ccccc12 [1-Naphthol] | 0 | –
46 | C=C1C(=O)O[C@H]2C[C@@H](C)[C@@H]3C=CC(=O)[C@@]3(C)[C@@H](OC(C)=O)[C@H]12 [Bigelovin] | -8.7 | –
47 | CC1=NCC[C@@H](C(=O)O)N1 [Ectoine] | 4 | –
48 | C[C@H]1[C@H]2[C@H](O[C@@H]3O[C@H](CO)[C@@H](O)[C@H](O)[C@H]3O)OC=C(C(=O)O)[C@H]2C[C@@H]1O [8-Epiloganic acid] | -0.9 | –
49 | N[C@H]1[C@H](O[C@H]2[C@H](O)[C@@H](N)[C@H](O[C@H]3[C@H](O)[C@@H](N)[C@H](O[C@H]4[C@H](O)[C@@H](N)[C@H](O[C@@H]([C@H](O)[C@@H](N)C=O)[C@H](O)CO)O[C@@H]4CO)O[C@@H]3CO)O[C@@H]2CO)O[C@H](CO)[C@@H](O)[C@@H]1O [Chitopentaose (pentahydrochloride)] | 9.1 | –
50 | O=C1C[C@@H](c2ccccc2)Oc2cc(O)cc(O)c21 [Pinocembrin] | 2.4 | –
51 | O=P(O)(O)O[C@H]1O[C@H](CO)[C@@H](O)[C@H](O)[C@H]1O [α-D-Glucose-1-phosphate (disodium hydrate)] | 6.2 | –
52 | C=C1[C@H](OC(=O)/C=C(\C)CC)C[C@@H](C(C)C)[C@@H]2[C@@H]([C@@H](C)OC(C)=O)C(=O)C[C@@H]12 [Tussilagone] | 60.7 | –
53 | N[C@@H](CCC[C@H](N)C(=O)O)C(=O)O [2,6-Diaminoheptanedioic acid] | 1.4 | –
54 | O=C(O)Cc1cccc(O)c1 [3-Hydroxyphenylacetic acid] | -0.3 | –
55 | C[C@@]12C[C@@]3(O)O[C@@H](O1)[C@]1(COC(=O)c4ccc(O)cc4)[C@H]3C[C@@]12O[C@@H]1O[C@H](COC(=O)c2ccccc2)[C@@H](O)[C@H](O)[C@H]1O [Benzoyloxypaeoniflorin] | 0.5 | –
56 | COc1ccc([C@@H]2CC(=O)c3c(O)cc(O)cc3O2)cc1O [Hesperetin] | 0 | –
57 | O=C1O[C@H]([C@H](O)CO)C(O)=C1O [Erythorbic acid] | – | 0.7
58 | O=c1cc(-c2ccccc2)oc2c(O)c(O)ccc12 [7,8-Dihydroxyflavone] | 0.2 | –
59 | CC(C)CCCO [4-Methyl-1-pentanol] | 1.4 | –
60 | COc1cc(C)c2c(=O)cc(C[C@@H](C)O)oc2c1[C@@H]1O[C@H](CO)[C@@H](O)[C@H](O)[C@H]1OC(=O)/C=C/c1ccc(O)cc1 [Aloeresin D] | 3.4 | –
61 | CCCCCCCCCCCCCCCO [1-Pentadecanol] | 1 | –

— article PMC12431657, “Discovery and mechanistic insights of dibenzoylmethane as a broad spectrum inhibitor of coronavirus” (PLOS Pathogens, 2025)
